Results on 31 compounds are retold here after the supplement of paper PMC7858590.

± gives the standard deviation of the averaged measurements. Whole data set: some 3,800 compounds, median “cell shape (eccentricity) Z-score vs DMSO control” near 1.1, cut for the lowest 2% near -4.7. This is one part of the list.

This assay relates to human monocyte-derived macrophages (M0). Description: cell shape (eccentricity) Z-score vs DMSO control; higher = more elongated, M2-like morphology. The conditions noted are these: 20 µM; 24 h; macrophage state: M0 (M-CSF).
With `NCCc1ccc(O)cc1`, the “cell shape (Z-score)” value was 1.45.

`C/C(=C/C=C/[C@@H](C)C(=O)O)[C@H]1CN[C@H](C(=O)O)[C@H]1CC(=O)O`: the “cell shape (Z-score)” value came to 1.92.

`COc1cc2c(cc1OC)C13CCN(C)CC4=CCOC5CC(=O)N2C1C5C4CC3=O` (stereo unspecified): the “cell shape (Z-score)” value is -1.4.

In the case of `O=c1ccc2cc(O[C@@H]3O[C@H](CO)[C@@H](O)[C@H](O)[C@H]3O)c(O)cc2o1`, the “cell shape (Z-score)” value came out at 2.48.

As to `COC1(C[S@@](=O)c2ccccc2)CCN(CCc2c[nH]c3ccc(F)cc23)CC1`, the “cell shape (Z-score)” value was -3.05.

For `Cc1nc(N)sc1CCN`, the “cell shape (Z-score)” value was found to be 2.39.

Turning to `CC(C)(O)[C@H]1O[C@H]2CC[C@@]3(C)[C@@](O)(CC[C@H]4Cc5c([nH]c6ccccc56)[C@@]43C)C2=CC1=O`, the “cell shape (Z-score)” value was 1.06.

Turning to `COc1cc2c(cc1-c1cc3cc4ccoc4cc3oc1=O)OCO2`, the “cell shape (Z-score)” value was 0.00462.

Consider `CC(=O)O[C@H]1C[C@@H](OC(C)=O)C(C)(C)C2C[C@@H](OC(C)=O)[C@]3(C)C(CC[C@@]4(C)[C@H](c5ccoc5)C(=O)[C@H]5O[C@]543)[C@]21C` (stereo partly specified), for which the “cell shape (Z-score)” value turned out to be 0.275.

For `CC(=O)C1CCC2C3CCC4CC(C)(O)CCC4(C)C3CCC12C` (stereo unspecified), the “cell shape (Z-score)” value came out at 2.24.

In the case of `CCCN(CCC)CCc1c[nH]c2ccc(C(N)=O)cc12`, the “cell shape (Z-score)” value is 2.79.

For the compound `N#C[C@@H](OC1OC(COC2OCC(O)C(O)C2O)C(O)C(O)C1O)c1ccccc1` (stereo partly specified), the “cell shape (Z-score)” value was 1.94 ± 0.78.

Take `CC[C@H]1CN2CCc3cc(OC)c(OC)cc3C2C[C@@H]1CC1NCCc2cc(OC)c(OC)cc21` (stereo partly specified): the “cell shape (Z-score)” value was -3.35.

As to `CCCN(CCC)C1CCc2cccc(O)c2C1` (stereo unspecified), the “cell shape (Z-score)” value came out at 5.39.

Regarding `c1cncc(C2CCCCN2)c1` (stereo unspecified), the “cell shape (Z-score)” value amounted to 2.04.

Turning to `Cl.c1ccc(C2CNCc3ccccc32)cc1` (stereo unspecified), the “cell shape (Z-score)” value is -1.58.

Regarding `COC1CC(OC2CCC3(C)C(CCC4C3CCC3(C)C(C5=CC(=O)OC5)C(OC(C)=O)CC43O)C2)OC(C)C1OC1OC(COC2OC(CO)C(O)C(O)C2O)C(O)C(O)C1O` (stereo unspecified), the “cell shape (Z-score)” value is -0.0893.

As to `Cc1ccc(C[N+](C)(C)C)o1`, the “cell shape (Z-score)” value came to 1.44.

Turning to `CC(C)(Cc1c[nH]c2ccc(Cl)cc12)NCCOc1ccccc1OCC1CC1`, the “cell shape (Z-score)” value amounted to 4.98.

As to `COc1cc([C@@H]2c3cc4c(c(O)c3C[C@H]3COC(=O)[C@@H]32)OCO4)cc(OC)c1OC`, the “cell shape (Z-score)” value stood at 10.

Take `COc1cc([C@@H]2c3cc4c(cc3[C@@H](O)C3COC(=O)C32)OCO4)cc(OC)c1O` (stereo partly specified): the “cell shape (Z-score)” value is 10.5.

In the case of `C=C[C@H]1C[N@@]2CC[C@H]1C[C@H]2[C@H](O)c1ccnc2ccccc12`, the “cell shape (Z-score)” value is 2.46.

Consider `CN1CCC2(c3cccc(O)c3)Cc3nc4ccccc4cc3CC2C1` (stereo unspecified), for which the “cell shape (Z-score)” value stood at 0.791.

On to `CC(C)(C)c1onc(O)c1CC(N)C(=O)O` (stereo unspecified), for which the “cell shape (Z-score)” value was 1.71.

Consider `COc1cc2c(cc1O)C(CCc1ccc(Cl)cc1)N(C)CC2` (stereo unspecified), for which the “cell shape (Z-score)” value amounted to 0.755.

Take `COc1cc2c(cc1OC)[C@@H]1CC(=O)[C@@H](CC(C)C)CN1CC2`: the “cell shape (Z-score)” value stood at 2.65.

Regarding `O=[N+]([O-])c1ccc(O)c([N+](=O)[O-])c1`, the “cell shape (Z-score)” value was -0.626.

For the compound `O=C(N[C@H]1CN2CCC1CC2)c1ccc(Cl)cc1`, the “cell shape (Z-score)” value was determined as 1.37.

With `C=CCN1C[C@H](C)N([C@H](c2ccc(C(=O)N(CC)CC)cc2)c2cccc(O)c2)C[C@H]1C`, the “cell shape (Z-score)” value turned out to be 1.38.

Regarding `CCCCCOc1c(OC)ccc2cc(C(=O)NCc3ccc4c(c3)OCO4)c(=O)[nH]c12`, the “cell shape (Z-score)” value turned out to be 0.652.

With `CC(=O)C1CCC2C3CCC4C[C@H](O)CCC4(C)C3C[C@H](O)C12C` (stereo partly specified), the “cell shape (Z-score)” value is -0.099.
